Data set [1] has as its system test panel of six Gram-positive bacterial strains. The experiment in a line: Relative activity factor distribution count over the test panel. The format is cell-based.
Data set [2] can be described thus: general procedure: Fmoc solid-phase peptide synthesis; 2-chlorotrityl chloride polystyrene resin (2-CTC, 1.60 mmol/g), preloaded via D-Ser side chain; HBTU/DIPEA; DIC/DMAP/pyridine for esterification; HATU/HOAt/DIPEA for on-resin c. To be noted: whole synthesis.
Data set [3] is described as follows: general procedure: Fmoc solid-phase peptide synthesis; preloaded 2-CTC resin (0.46 mmol/g); HBTU/DIPEA; DIC/DMAP/pyridine for esterification; HATU/HOAt/DIPEA for on-resin c. To be noted: whole synthesis, scale 0.069 mmol.
Where [4] appears, read: 214 nm, scale of the general procedure 0.0555 mmol.
[5] abbreviates: based on initial resin loading, scale 0.0615 mmol.
[6] abbreviates: scale of the general procedure 0.0555 mmol.
Where [7] appears, read: based on initial resin loading, scale 0.069 mmol.

This is an account of results in publication PMC7187754 (Frontiers in Microbiology, 2020).

For the substance Daptomycin, in data set [1], the “Relative activity factor distribution count ×4” value is 1 and the “Relative activity factor distribution count ≥16” value is 4.

In the case of pseudodesmin C12, the “final HPLC purity” value in data set [2] (setting [4]) is 99.09%. Besides, the isolated yield in data set [2] (setting [5]) was 1 8%. The substance further registered an isolated mass in data set [2] (scale 0.0615 mmol) of 12.8 mg. For the same substance, the difficulty met entry in data set [2] (setting [6]) is “[M+H]+, epimerization product”.

For viscosinamide L5I, in data set [3], the crude mass was determined as 82.6 mg. In addition, in data set [2] (setting [4]), the “final purity (method not given)” value came out at 75.2%. Besides, the isolated yield in data set [2] (setting [7]) is listed as 12%. In data set [2] (scale 0.069 mmol), this substance registered an isolated mass of 9.0 mg. The difficulty met entry in data set [2] (setting [6]) is “[M+H]+, epimerization product”.

On to pseudodesmin C8, for which, in data set [2] (setting [4]), the “final HPLC purity” value turned out to be 92.62%. The isolated yield in data set [2] (setting [5]) was 1 0%. The isolated mass in data set [2] (scale 0.0615 mmol) is on record as 6.7 mg. The difficulty met entry in data set [2] (setting [6]) was “[M+H]+, epimerization product”.

Turning to pseudodesmin C14, the “final HPLC purity” value in data set [2] (setting [4]) is 99.31%. The isolated yield in data set [2] (setting [5]) is 1 4%. For the same substance, in data set [2] (scale 0.0615 mmol), the isolated mass was determined as 10.5 mg. The difficulty met result in data set [2] (setting [6]) is “[M+H]+, epimerization product”.

Turning to pseudodesmin C6, the “final HPLC purity” value in data set [2] (setting [4]) turned out to be 91.31%. Besides, the isolated yield in data set [2] (setting [5]) stood at 13%. In data set [2] (scale 0.0615 mmol), this substance gave an isolated mass of 8.8 mg. In data set [2] (setting [6]), the difficulty met entry was “[M+H]+, epimerization product”.

On to Pseudodesmin A [compound 1], for which, in data set [1], the “Relative activity factor distribution count 0.5≤F≤2” value came out at 3, the “Relative activity factor distribution count ×4” value was found to be 1 and the “Relative activity factor distribution count ×8” value amounted to 2.

For pseudodesmin A, the “final LC-MS purity” value in data set [2] (LC-MS (Kinetex C18, detection at 214 nm), scale of the general procedure 0.0555 mmol) is given as 99.66%. In data set [2] (overall, on initial resin loading, scale of the general procedure 0.0555 mmol), the isolated yield was 27%. This substance yielded an isolated mass in data set [2] (scale 0.0765 mmol) of 23.5 mg.

Turning to Viscosinamide, the “final HPLC purity” value in data set [2] (setting [4]) was 96.23%. Also, the isolated yield in data set [2] (setting [7]) was found to be 35%. In data set [2] (scale 0.069 mmol), this substance had a crude mass of 85.6 mg and an isolated mass of 27.4 mg. In data set [2] (setting [6]), the difficulty met entry was “[M+H]+, epimerization product”.

Turning to pseudodesmin C4, the “final HPLC purity” value in data set [2] (setting [4]) amounted to 90.99%. This substance also registered an isolated yield in data set [2] (setting [5]) of 8%. Moreover, the isolated mass in data set [2] (scale 0.0615 mmol) was 5.2 mg. Besides, the difficulty met entry in data set [2] (setting [6]) was “[M+H]+, epimerization product”.
